These results are taken from paper PMC9726926.

By UniProt entry, the sequences of proteins in these tests, tags left out. Where a name states a change or a piece, a line headed by the entry shows the natural chain unless it says otherwise.
UniProt Q96GD4: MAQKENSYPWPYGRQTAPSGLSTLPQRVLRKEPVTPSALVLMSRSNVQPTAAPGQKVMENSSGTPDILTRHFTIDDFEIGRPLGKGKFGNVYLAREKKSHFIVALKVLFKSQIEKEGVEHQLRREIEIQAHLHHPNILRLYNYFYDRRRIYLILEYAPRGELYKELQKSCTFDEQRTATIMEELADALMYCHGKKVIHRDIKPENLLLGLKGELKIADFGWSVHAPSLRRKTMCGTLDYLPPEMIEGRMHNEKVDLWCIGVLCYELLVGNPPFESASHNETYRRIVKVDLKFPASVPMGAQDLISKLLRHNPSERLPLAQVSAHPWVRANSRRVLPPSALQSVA
UniProt P46736: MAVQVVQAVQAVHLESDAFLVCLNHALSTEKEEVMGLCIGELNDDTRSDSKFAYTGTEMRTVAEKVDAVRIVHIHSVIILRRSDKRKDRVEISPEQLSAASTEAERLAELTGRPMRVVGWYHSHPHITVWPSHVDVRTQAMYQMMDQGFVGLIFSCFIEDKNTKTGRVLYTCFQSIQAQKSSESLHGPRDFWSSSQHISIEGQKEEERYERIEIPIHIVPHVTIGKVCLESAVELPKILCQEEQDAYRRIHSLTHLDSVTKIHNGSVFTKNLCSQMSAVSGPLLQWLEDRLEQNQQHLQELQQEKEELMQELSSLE
UniProt Q9NQS7: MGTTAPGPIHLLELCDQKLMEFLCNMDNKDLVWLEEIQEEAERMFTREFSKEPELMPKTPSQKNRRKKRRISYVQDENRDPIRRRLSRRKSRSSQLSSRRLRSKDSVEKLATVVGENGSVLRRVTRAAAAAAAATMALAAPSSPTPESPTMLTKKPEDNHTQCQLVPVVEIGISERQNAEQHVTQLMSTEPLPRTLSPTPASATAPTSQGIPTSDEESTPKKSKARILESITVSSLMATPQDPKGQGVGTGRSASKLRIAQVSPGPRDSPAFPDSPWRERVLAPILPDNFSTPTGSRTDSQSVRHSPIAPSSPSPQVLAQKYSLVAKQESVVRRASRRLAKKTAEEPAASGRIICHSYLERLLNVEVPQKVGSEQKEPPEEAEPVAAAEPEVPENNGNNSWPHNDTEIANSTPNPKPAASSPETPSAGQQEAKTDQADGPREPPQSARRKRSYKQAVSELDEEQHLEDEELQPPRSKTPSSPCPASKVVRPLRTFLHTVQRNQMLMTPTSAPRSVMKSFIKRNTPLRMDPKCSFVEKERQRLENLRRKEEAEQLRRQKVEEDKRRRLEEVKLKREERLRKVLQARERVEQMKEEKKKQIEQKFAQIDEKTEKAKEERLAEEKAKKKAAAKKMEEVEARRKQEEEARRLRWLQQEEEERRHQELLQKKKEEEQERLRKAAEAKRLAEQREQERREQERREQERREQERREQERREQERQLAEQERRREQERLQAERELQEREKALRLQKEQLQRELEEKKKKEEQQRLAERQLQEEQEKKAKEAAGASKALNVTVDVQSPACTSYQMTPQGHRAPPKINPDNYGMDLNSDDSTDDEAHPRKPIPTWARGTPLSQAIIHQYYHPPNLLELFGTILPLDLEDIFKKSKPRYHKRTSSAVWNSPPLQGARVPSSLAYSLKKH
UniProt O15392: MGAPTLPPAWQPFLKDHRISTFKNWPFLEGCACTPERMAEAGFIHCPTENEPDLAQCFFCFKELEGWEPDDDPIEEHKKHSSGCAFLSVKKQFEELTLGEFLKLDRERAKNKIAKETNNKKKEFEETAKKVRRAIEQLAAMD

The target of assay [1] is Flag-Aurora B K56R (human) (UniProt Q96GD4). Kind of assay: co-IP; Flag-IP (anti-Flag-M2 agarose, 4 °C, 4-6 h) from mitotic HEK293T cells transfected with the indicated plasmids (nocodazole 30 ng/mL, 16 h); 150 mM NaCl; immunoblot. In general terms: In western blotting, separated proteins are transferred to a membrane and probed.
For assay [2], the target named is Flag-Aurora B K85R/K87R (human) (UniProt Q96GD4). Described as above.
Assay [3] concerns the target Flag-HA-Aurora B (human) (UniProt Q96GD4). The assay is described as above.
Assay [4] has the same target. Put plainly: co-IP; Flag-Aurora B immunoprecipitates blotted for ectopic EGFP-Abro1 or EYFP-BRCC36 (Supplementary Fig. 1b, c); cell line not told in the text shown.
The target in the next assay is Flag-BRCC36 (UniProt P46736). Kind of assay: co-IP; Flag-IP (anti-Flag-M2 agarose, 4 °C, 4-6 h) from mitotic HeLa cells transfected with FH-Abro1 or Flag-BRCC36; lysis in NETN 400, diluted to 150 mM NaCl; immunoblot of endogenous partners.
For another assay, the target named is GST-Aurora B (human) (UniProt Q96GD4). Kind of assay: pull-down; GST-Aurora B immobilised on glutathione sepharose, incubated with mitotic HeLa cell extracts at 4 °C for 4 h; immunoblot; only the target purified.

No constants are given. Whether binding was seen depends on the method and setting. Binding seen in cells or lysates may run through a third protein. Some entries that bind do so weakly or less than the wild type.

For the substance INCENP (from UniProt Q9NQS7 1-918), the binding entry (in assay [1]; in assay [2]; in the assay with Flag-HA-Aurora B (human) [3]) was “binds” in each case.
Consider Survivin (from UniProt O15392 1-142), for which the binding entry (in assay [1]; in assay [2]; with Flag-HA-Aurora B (human) [3]) was “binds” each time.
As for EYFP-BRCC36 (from UniProt P46736 1-316), the binding result with Flag-HA-Aurora B (human) [4] is “binds”.
With “Aurora B (endogenous, HeLa) (from UniProt Q96GD4 1-344)”, the binding entry with Flag-BRCC36 is listed as “binds”.
As for “BRCC36 (endogenous, HeLa) (from UniProt P46736 1-316)”, in the assay with GST-Aurora B (human), the binding result is “binds”.
